Laboratory results reported in patent publication US20260199320A1, “COMBINATION THERAPIES FOR TREATING CANCER” (INSTITUTE FOR CANCER RESEARCH D/B/A THE RESEARCH INSTITUTE …, priority 2022, published 2026).
At least one compound was matched to its structure with a doubt left.

Experiments:
[1] = test system: RCC4 cells; test: Lysosomal biogenesis analysis (LysoTracker Red imaging), RCC4; format: cell-based
[2] = test system: 786-O cells; test: Lysosomal biogenesis analysis (LysoTracker Red imaging), 786-O; format: cell-based

## Cn1cncc1[C@@](N)(c1ccc(Cl)cc1)c1ccc2c(c1)c(-c1cccc(Cl)c1)cc(=O)n2C [tipifarnib]
[1]
  lysosomal biogenesis: reduces lysosomal biogenesis
[2]
  lysosomal biogenesis: reduces lysosomal biogenesis
